# Reference: publication PMC7819943, “Rice protein-binding microarrays: a tool to detect cis-acting elements near promoter regions in rice”
# Some of the results follow.
# Molecular target: T1, OsSMF1 (Oryza sativa, UniProt Q6ZLB0 1-436)
# T1 sequence: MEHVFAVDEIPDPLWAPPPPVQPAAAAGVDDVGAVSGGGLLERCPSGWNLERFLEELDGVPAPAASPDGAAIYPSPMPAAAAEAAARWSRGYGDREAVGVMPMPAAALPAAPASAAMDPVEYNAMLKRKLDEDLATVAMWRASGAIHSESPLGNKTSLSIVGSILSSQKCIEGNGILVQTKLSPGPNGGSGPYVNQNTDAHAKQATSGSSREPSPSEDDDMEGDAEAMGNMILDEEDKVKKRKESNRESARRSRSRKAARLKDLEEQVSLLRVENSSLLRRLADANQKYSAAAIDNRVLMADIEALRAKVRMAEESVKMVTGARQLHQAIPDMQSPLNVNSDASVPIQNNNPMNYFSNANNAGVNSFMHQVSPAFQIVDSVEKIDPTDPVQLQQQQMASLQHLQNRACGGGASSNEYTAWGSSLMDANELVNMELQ
# Assay: protein-binding microarray (RPBM); PBS, 2% BSA, 51.3 ng/ul salmon testes DNA, 50 uM zinc acetate, 200 nM TF, 25 C, 1 h; high values mean tight binding
# Details: protein: recombinant; tags: N-terminal polyhistidine and DsRed monomer fusion (pET32a); chain copies: 2; label: CyDye5-dUTP incorporated in the synthesized complementary strand; 3' TTTTT single-stranded linker to array surface; dsDNA, one strand shown
# In short: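 An Axon 4000B scanner gave the binding signal as per-feature fluorescence intensity in arbitrary units. This followed washing of a custom Agilent array that had been incubated for 1 h at 25 °C with 200 nM protein in PBS, 2% BSA, salmon testes DNA and 50 µM zinc acetate. The proteins were transcription factors fused at the N-terminus to polyhistidine and DsRed, expressed in E. coli BL21-CodonPlus and purified on Ni–NTA.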
row,Sequence,binding signal
1,ACAAATGACGCATTCCCCGACATTCCATACTTGCTCGTCACGGAGTCACCTAGTGCAG,6020 fluorescence intensity (a.u.)
2,CTAATGCTCATCTTGACACGCAATTTATATGCATTCATATCGGAGTCACCTAGTGCAG,4430 fluorescence intensity (a.u.)
3,TCCTTTGACCAAATCCGAAACTACCAATGTCATGTTCACCCGGAGTCACCTAGTGCAG,3150 fluorescence intensity (a.u.)
4,CCTTCCTGACACCACCCGCCCACCACAGCTTCCCGTTCCTCGGAGTCACCTAGTGCAG,20100 fluorescence intensity (a.u.)
5,CGCCCTAATCCTCTACAGTAATCATGCTGACATGGTGGCTCGGAGTCACCTAGTGCAG,4160 fluorescence intensity (a.u.)
6,TACCTGTGACCCACGTAATCAAGCCTGACGTTAGCACAATCGGAGTCACCTAGTGCAG,8980 fluorescence intensity (a.u.)
7,TTTTCCGCGATTCAGCCACGTACACGCACCGTCCCCTTCCCGGAGTCACCTAGTGCAG,8710 fluorescence intensity (a.u.)
8,AAACGAAGATTAAAGGTTGATAAAAGGCCTATTTAGATCTCGGAGTCACCTAGTGCAG,25000 fluorescence intensity (a.u.)
9,TGTGCGGATGGCGTCATTGCTTAGCTTAGCAATAGCATCGCGGAGTCACCTAGTGCAG,8240 fluorescence intensity (a.u.)
10,ATGCCATTGATTCAATAGTGAATCATCGTTCTTTCTGGATCGGAGTCACCTAGTGCAG,3550 fluorescence intensity (a.u.)
11,CCGCCGCTGGCGTGTCGAGCTCTGTCTCCAACTCCTCGCCCGGAGTCACCTAGTGCAG,6370 fluorescence intensity (a.u.)
12,TATCTAGCTATCTATCAGCTGCCTTCCATCGTCAGCACACCGGAGTCACCTAGTGCAG,8570 fluorescence intensity (a.u.)
13,ACCGTGTGGGTATGGTGTGCGTGTGTAGTGGTGTTTGTGCCGGAGTCACCTAGTGCAG,3860 fluorescence intensity (a.u.)
14,GGGAAAGGATATGAGTAGGCGCTGACATATTGGCTTCACACGGAGTCACCTAGTGCAG,3220 fluorescence intensity (a.u.)
15,TTACCAAACTGGAAATTTCGTGGTGTTACAAAATAGGACACGGAGTCACCTAGTGCAG,3280 fluorescence intensity (a.u.)
16,GGTGATTCTGTGCTGTTGATGATGTTTTCTCTGAAGATTCCGGAGTCACCTAGTGCAG,3850 fluorescence intensity (a.u.)
17,TAACTGTTATGCTGTGGTATGATGGCTTGTACATTGCGTACGGAGTCACCTAGTGCAG,3230 fluorescence intensity (a.u.)
18,CGATCCAAACCCTCGACTGGGGCCCACATGTCAGCGACCACGGAGTCACCTAGTGCAG,3570 fluorescence intensity (a.u.)
19,ATCCCTGAAATTACAGCGGTGGACGTCATGACACACTTATCGGAGTCACCTAGTGCAG,3860 fluorescence intensity (a.u.)
20,CCTCCACACAAACATAAATCTGATGTGGTAACTTGTATAGCGGAGTCACCTAGTGCAG,5260 fluorescence intensity (a.u.)
21,GCCCTTCGGCGTACGGCAGCGCCATGACACCCGGTGGACCCGGAGTCACCTAGTGCAG,3770 fluorescence intensity (a.u.)

# Shown with bars between the fields: part of the list above
row | Sequence | binding signal
9 | TGTGCGGATGGCGTCATTGCTTAGCTTAGCAATAGCATCGCGGAGTCACCTAGTGCAG | 8240 fluorescence intensity (a.u.)
18 | CGATCCAAACCCTCGACTGGGGCCCACATGTCAGCGACCACGGAGTCACCTAGTGCAG | 3570 fluorescence intensity (a.u.)

# Additional results follow:

row,Sequence,binding signal
1,ACATAGATGGACCCATTTGTCATCCACTCGGAGTGTCAAACGGAGTCACCTAGTGCAG,3600 fluorescence intensity (a.u.)
2,CCACACGAAACGGAAAGCGGTCGGGTTGGCATATATACGCCGGAGTCACCTAGTGCAG,4390 fluorescence intensity (a.u.)
3,ACAGCGTGTAGGGTAACTTTCCATGACACAGCTGCAGAGCCGGAGTCACCTAGTGCAG,3510 fluorescence intensity (a.u.)
4,CTTTTCCTGTCAAGTGGTCTCATTTCTTTGACTCTTCGTCCGGAGTCACCTAGTGCAG,5340 fluorescence intensity (a.u.)
5,GTGTCCCGGTGCCTTTTCCACGCCCACCGTTGCTAGCTACCGGAGTCACCTAGTGCAG,3790 fluorescence intensity (a.u.)
6,CGGCGCGCCGTGATTGTGCCTGATTGGGGTGGGGTTGGGGCGGAGTCACCTAGTGCAG,5710 fluorescence intensity (a.u.)
7,CTCTCCGCTGTCGGAGACGACGCGGCCACCAAACCCTAGCCGGAGTCACCTAGTGCAG,3490 fluorescence intensity (a.u.)
8,GTAAGACGAGGACAATTCAAACCATCCACGTAGGCATCACCGGAGTCACCTAGTGCAG,14800 fluorescence intensity (a.u.)
9,TACCACCACCCACTACCCTTCCCGCTCGGAATAGGAGGGGCGGAGTCACCTAGTGCAG,3330 fluorescence intensity (a.u.)
10,AAAATTCCACATCAAATATGTCATACTATATCCCTGATGACGGAGTCACCTAGTGCAG,3720 fluorescence intensity (a.u.)
11,AATCGTGCCATCGTCATCAAATCAGCAGAAGTACACACTCCGGAGTCACCTAGTGCAG,4890 fluorescence intensity (a.u.)
12,GCTATATTTAGAATATGACGCAATCTACGGGACACAAAACCGGAGTCACCTAGTGCAG,3630 fluorescence intensity (a.u.)
13,GCGGCGAGGTGGTGCCGCCGCACGTGCTGCTGGCGCGGCGCGGAGTCACCTAGTGCAG,3830 fluorescence intensity (a.u.)
14,AAAGCGGCGCACATGGGGCGAGCGAGGAGGGGTGCCACGTCGGAGTCACCTAGTGCAG,9280 fluorescence intensity (a.u.)
15,AAGTGTGTAGTTTGGTGAGCTACTAGTGTCACAGCGTGACCGGAGTCACCTAGTGCAG,4950 fluorescence intensity (a.u.)
16,CCCCGCCACGTGTCGAGGTGGGCCCCACCAACGACCGGACCGGAGTCACCTAGTGCAG,7940 fluorescence intensity (a.u.)
17,TGTAGAGTGTGTGTGCGTGTTCATATGGGTTGGTGTATGTCGGAGTCACCTAGTGCAG,3790 fluorescence intensity (a.u.)
18,TAAACGAGGCAACGTGTTCCTCGAGATCTTCAGAGCCAGGCGGAGTCACCTAGTGCAG,4060 fluorescence intensity (a.u.)
19,TGGTCCCAACCTTTTCATACTTACGTGTCAGCTCTCAACACGGAGTCACCTAGTGCAG,14000 fluorescence intensity (a.u.)
20,TATAGTTGTGTACTAGTGTCACTCACGCCACCCGTCTCATCGGAGTCACCTAGTGCAG,3670 fluorescence intensity (a.u.)
21,TATATACCCAAAGAGAATCATTGATACGTCGTCACACATACGGAGTCACCTAGTGCAG,4310 fluorescence intensity (a.u.)
